According to patent US20150246137A1, “LIPID COATED NANOPARTICLES CONTAINING AGENTS HAVING LOW AQUEOUS AND LIPID SOLUBILITIES AND METHODS THEREOF” (THE UNIVERSITY OF NORTH CAROLINA AT CHAPEL HILL, priority 2012, published 2015):
At least one structure is not confirmed: it was looked up by name or label, or the drawing left a doubt.

Tested on: Vem-resistant 1205Lu tumors
Experiment: Combination with Vem in Vem-resistant tumors
Assay type: in vivo, nude mice
Details: Vem 100 mg/Kg daily I.P.; Pt 2.0 mg/Kg I.V.

CCCS(=O)(=O)Nc1ccc(F)c(C(=O)c2c[nH]c3ncc(-c4ccc(Cl)cc4)cc23)c1F [Vem, Vemurafenib]
growth of Vem-resistant tumor: grew rapidly
